Source: the supplement of paper PMC10331698
± gives the standard deviation of the averaged measurements. Most entries show no effect beyond the scatter of the controls.

Experiments:
Assay in all cases: level (log10 ratio to DMSO vehicle control); higher = higher biomarker level / cell amount than vehicle control
[1] = compound: FC(F)(F)C(F)(F)C(F)(F)C(F)(F)C(F)(F)CCI [1-Iodo-1H,1H,2H,2H-perfluoroheptane]; details: 2200 nM; in DMSO
Procedure: (§1)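 BioMAP Diversity Plus panel of 12 human primary cell co-culture systems (3C, 4H, LPS, SAg, BT, BF4T, BE3C, CASM3C, HDF3CGF, KF3CT, MyoF, Mphg). Compounds were added 1 h before stimulation and left for 24 h (MyoF 48 h; BT 72 h for soluble read-outs or 6 d for IgG). Biomarkers were read by ELISA, cytotoxicity by SRB, PBMC viability and proliferation by Alamar Blue. Each well value was divided by the mean of 8 DMSO control wells on the same plate and log10 transformed; duplicate blinded samples were tested at 4 concentrations.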

[2] = compound: NS(=O)(=O)C(F)(F)C(F)(F)C(F)(F)C(F)(F)C(F)(F)C(F)(F)F [Perfluorohexanesulfonamide]; details: 2200 nM; in DMSO
Procedure: as §1

[3] = compound: C=C(C)C(=O)OCCC(F)(F)C(F)(F)C(F)(F)C(F)(F)C(F)(F)C(F)(F)C(F)(F)C(F)(F)F [8:2 Fluorotelomer methacrylate]; details: in DMSO
Procedure: as §1

[4] = compound: NC(=O)C(F)(F)C(F)(F)C(F)(F)C(F)(F)F [Nonafluoropentanamide]; details: 2200 nM; in DMSO
Procedure: as §1

[5] = compound: COC(=O)CCC(F)(F)C(F)(F)C(F)(F)C(F)(F)F [Methyl 2H,2H,3H,3H-perfluoroheptanoate]; details: 2200 nM; in DMSO
Procedure: as §1

[6] = compound: O=C(O)C(F)(F)C(F)(F)C(=O)O [Tetrafluorosuccinic acid]; details: 2200 nM; in DMSO
Procedure: as §1

[7] = compound: NC(=O)C(F)(F)C(F)(F)C(F)(F)C(F)(F)C(N)=O [Octafluoroadipamide]; details: 2200 nM; in DMSO
Procedure: as §1

[8] = compound: O=C(O)CCC(F)(F)C(F)(F)C(F)(F)C(F)(F)C(F)(F)F [2H,2H,3H,3H-Perfluorooctanoic acid]; details: 2200 nM; in DMSO
Procedure: as §1

[9] = compound: OC(C(F)(F)F)(C(F)(F)F)C(O)(C(F)(F)F)C(F)(F)F [Perfluoropinacol]; details: in DMSO
Procedure: as §1

[10] = compound: O=C(O)C(F)(F)C(F)(F)C(F)(F)C(F)(F)C(F)(F)C(F)(F)C(F)(F)C(F)(F)Cl [9-Chloro-perfluorononanoic acid]; details: in DMSO
Procedure: as §1

[11] = compound: OCCC(F)(F)C(F)(F)C(F)(F)C(F)(F)F [4:2 Fluorotelomer alcohol]; details: 2200 nM; in DMSO
Procedure: as §1

[12] = compound: O=S(=O)(O)C(F)(F)C(F)(F)OC(F)(F)C(F)(F)F [Perfluoro(2-ethoxyethane)sulfonic acid]; details: 2200 nM; in DMSO
Procedure: as §1

[13] = compound: C=C(C)C(=O)OCCC(F)(F)C(F)(F)C(F)(F)C(F)(F)C(F)(C(F)(F)F)C(F)(F)F [(Perfluoro-5-methylhexyl)ethyl 2-methylprop-2-enoate]; details: in DMSO
Procedure: as §1

[14] = compound: O=S(=O)(O)CCC(F)(F)C(F)(F)C(F)(F)C(F)(F)C(F)(F)C(F)(F)F [6:2 Fluorotelomer sulfonic acid]; details: in DMSO
Procedure: as §1

Test System	level (log10) [1]	level (log10) [2]	level (log10) ([3]; 740 nM)	level (log10) ([3]; 2200 nM)	level (log10) [4]	level (log10) [5]	level (log10) [6]	level (log10) [7]	level (log10) [8]	level (log10) ([9]; 2200 nM)	level (log10) ([9]; 6700 nM)	level (log10) ([9]; 20000 nM)	level (log10) ([10]; 2200 nM)	level (log10) ([10]; 6700 nM)	level (log10) ([10]; 20000 nM)	level (log10) [11]	level (log10) [12]	level (log10) ([13]; 740 nM)	level (log10) ([13]; 2200 nM)	level (log10) ([13]; 6700 nM)	level (log10) ([13]; 20000 nM)	level (log10) ([14]; 2200 nM)	level (log10) ([14]; 6700 nM)	level (log10) ([14]; 20000 nM)	level (log10) ([14]; 60000 nM)
3C:CD106/VCAM-1	-0.0055 ± 0.022	0.003 ± 0.016	-0.0055 ± 0.0064	-0.0175 ± 0.0078	-0.0135 ± 0.023	-0.03 ± 0.011	-0.0065 ± 0.0092	-0.0295 ± 0.063	-0.0035 ± 0.029	0.004 ± 0.0057	-0.006 ± 0.02	-0.0385 ± 0.018	0.015 ± 0.0014	-0.005 ± 0.0014	-0.001 ± 0.021	0.015 ± 0.0099	0.013 ± 0.014	-0.013	-0.008 ± 0.0028	-0.032 ± 0.0099	-0.012 ± 0.0085	-0.0105 ± 0.0064	-0.019 ± 0.0071	-0.035	-0.014 ± 0.013
BT:B cell Proliferation	0.0155 ± 0.032	-0.009 ± 0.035	-0.02 ± 0.031	0.002 ± 0.013	-0.012 ± 0.0085	0.015 ± 0.03	0.0335 ± 0.025	0.0095 ± 0.021	0.042 ± 0.058	-0.0025 ± 0.0078	-0.0065 ± 0.0064	-0.085 ± 0.034	0.014 ± 0.024	0.04 ± 0.038	0.037 ± 0.017	0.0115 ± 0.018	0.0545 ± 0.052	-0.006 ± 0.017	0.004 ± 0.0028	-0.027 ± 0.011	0.001 ± 0.017	0.025 ± 0.033	0.0405 ± 0.066	0.031 ± 0.017	0.0625 ± 0.098
LPS:SRB	0.0005 ± 0.013	-0.002 ± 0.0028	0.006 ± 0.0042	-0.0025 ± 0.0092	0.0055 ± 0.0078	0.0005 ± 0.015	-0.0035 ± 0.005	-0.001 ± 0.0057	-0.0075 ± 0.021	0.0015 ± 0.00071	-0.0265 ± 0.0021	-0.151 ± 0.0064	0.005 ± 0.0014	0.0015 ± 0.012	-0.0035 ± 0.013	-0.006	-0.0065 ± 0.0078	0.0015 ± 0.0092	0.0015 ± 0.0021	-0.001 ± 0.0028	-0.0085 ± 0.0021	-0.0015 ± 0.013	-0.0055 ± 0.00071	-0.0005 ± 0.0064	-0.001 ± 0.023
HDF3CGF:PAI-I	-0.0065 ± 0.039	0.024 ± 0.014	0.026 ± 0.082	0.001 ± 0.052	-0.014 ± 0.069	0.0145 ± 0.015	-0.0075 ± 0.015	0.0225 ± 0.059	0.021 ± 0.03	0.0105 ± 0.0078	-0.0325 ± 0.012	-0.117 ± 0.0021	0.041 ± 0.073	0.0685 ± 0.033	0.0245 ± 0.015	-0.0175 ± 0.13	0.0215 ± 0.033	-0.0325 ± 0.028	-0.039 ± 0.0085	-0.037 ± 0.0028	-0.0385 ± 0.019	0.004 ± 0.024	0.005 ± 0.0042	-0.0015 ± 0.0035	-0.01 ± 0.011
MyoF:CD106/VCAM-1	0.003 ± 0.021	-0.0175 ± 0.016	-0.0115 ± 0.0078	0.002 ± 0.0057	-0.011 ± 0.017	-0.0245 ± 0.0021	-0.0145 ± 0.0021	-0.0005 ± 0.005	-0.016 ± 0.023	-0.014 ± 0.014	-0.013 ± 0.011	-0.042 ± 0.0085	-0.0215 ± 0.0078	-0.008 ± 0.025	-0.101 ± 0.023	0.002 ± 0.021	-0.0145 ± 0.011	-0.0125 ± 0.0021	0.002 ± 0.025	0.0095 ± 0.0092	-0.013 ± 0.0028	-0.023 ± 0.0028	-0.003 ± 0.0028	-0.012 ± 0.0099	-0.0095 ± 0.005
LPS:M-CSF	-0.0095 ± 0.0078	-0.016 ± 0.0014	-0.0085 ± 0.037	-0.0185 ± 0.011	-0.016 ± 0.052	0.0355 ± 0.019	-0.0015 ± 0.039	-0.032 ± 0.15	0.0215 ± 0.0092	0.002 ± 0.0085	0.0135 ± 0.015	-0.1085 ± 0.00071	0.0165 ± 0.011	-0.0125 ± 0.0078	0.0485 ± 0.047	0.008 ± 0.054	0.0415 ± 0.005	0.0385 ± 0.035	0.018 ± 0.02	0.022 ± 0.02	0.006 ± 0.0042	0.0025 ± 0.026	-0.0045 ± 0.015	0.004 ± 0.03	0.0485 ± 0.039
4H:SRB	0.0025 ± 0.0064	0.0025 ± 0.0035	0.006 ± 0.0028	-0.0095 ± 0.019	-0.0025 ± 0.0092	0.0105 ± 0.012	0.004 ± 0.0014	-0.0065 ± 0.011	0.005 ± 0.0014	-0.0075 ± 0.0078	-0.0345 ± 0.015	-0.13 ± 0.0078	-0.0005 ± 0.0035	-0.0015 ± 0.00071	-0.0055 ± 0.0035	-0.0035 ± 0.012	-0.0035 ± 0.0064	0.0045 ± 0.011	0.002 ± 0.0028	0.002 ± 0.013	-0.0025 ± 0.019	0.005 ± 0.0042	-0.0015 ± 0.0021	0.0035 ± 0.018	-0.004 ± 0.027
LPS:CD141/Thrombomodulin	-0.0035 ± 0.013	-0.01	0.0165 ± 0.013	-0.0015 ± 0.026	0.017 ± 0.0014	-0.0055 ± 0.018	0.0075 ± 0.1	-0.0295 ± 0.1	0.114 ± 0.0085	-0.0115 ± 0.022	-0.106 ± 0.028	-0.118 ± 0.005	0.0355 ± 0.018	0.0485 ± 0.033	0.064 ± 0.03	-0.0035 ± 0.0021	0.082 ± 0.0057	0.027 ± 0.033	0.0075 ± 0.03	0.0055 ± 0.0092	-0.0345 ± 0.021	0.107 ± 0.05	0.061 ± 0.03	0.065 ± 0.0057	0.0475 ± 0.021

Copied from the list.
level (log10) [7] with HDF3CGF:PAI-I is entered as 0.0225 ± 0.059
level (log10) ([13]; 2200 nM) with MyoF:CD106/VCAM-1 is entered as 0.002 ± 0.025
